Measurements reported in PubChem BioAssay AID652272 (Drosophila RNAi Screening Center, 2013).
Aim: 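Genome-wide knock-down search for components of Hedgehog signalling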 (primary screen). Cell system: Drosophila clone 8 (Cl8) cells. Reagent: long dsRNA against Drosophila genes. Measurement: 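Plate reader light from a firefly reporter under a ptc promoter fragment that responds to Hedgehog, with Renilla light as transfection reference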. Scale: firefly Hh reporter signal: higher = more ptc reporter light; Renilla reference signal: higher = more Renilla control light. Call rule: 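Hit when the z-score averaged over two replicates is under -2 or over +3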. Calls: active = hit: reporter lowered or raised; inactive = not a hit.
In all, the deposit lists about 21,000 reagents; shown is a random part of those that have a named target and a result. Of all reagents, 503 (2.4%) are marked active. 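Raw plate light values, not normalised; calls rest on replicate z-scores that were not deposited; hits include reporter decreases as well as increases.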 The numbers tell different reagents against one gene apart. Names joined by + are all predicted targets of the reagent. Not given: the amount of reagent, the time to read-out.

| target gene | dsRNA no. | firefly Hh reporter signal, replicate 1 | firefly Hh reporter signal, replicate 2 | firefly Hh reporter signal, replicate 3 | Renilla reference signal, replicate 1 | Renilla reference signal, replicate 2 | activity call |
| --- | --- | --- | --- | --- | --- | --- | --- |
| CG5849 | 1 | 5.82e5 | 1.62e5 | – | 26096 | 2816 | inactive |
| RpL23 (Ribosomal protein L23) | 1 | 28289 | 24235 | – | 1707 | 3936 | active |
| Gr64f (Gustatory receptor 64f) | 1 | 79818 | 60984 | – | 2378 | 4242 | inactive |
| CG12643 | 1 | 71492 | 1.76e5 | – | 2507 | 6531 | inactive |
| CG9240 | 1 | 76205 | 1.28e5 | – | 2221 | 5477 | inactive |
| CG11674 | 1 | 1.85e5 | 85748 | – | 4161 | 2211 | inactive |
| Cpr49Ad (Cuticular protein 49Ad) | 1 | 1.15e5 | 76391 | – | 2949 | 6161 | inactive |
| corto | 1 | 2.23e5 | – | – | 3477 | – | inactive |
| corto | 2 | 1.55e5 | 1.37e5 | – | 3521 | 2807 | inactive |
| esg (escargot) | 1 | 87402 | 65888 | – | 3097 | 7037 | inactive |
| CG13739 | 1 | 78266 | 26408 | – | 1856 | 2043 | inactive |
| CG13972 | 1 | 1.01e5 | 72305 | – | 1746 | 2160 | inactive |
| CG18135 | 1 | 1.25e5 | 71329 | – | 4886 | 2585 | inactive |
| Spn77Bb + Spn77Bc | 1 | 1.47e5 | 1.51e5 | – | 4641 | 4509 | inactive |
| Spn77Bb + Spn77Bc | 2 | 1.11e5 | 1.58e5 | – | 3773 | 4427 | inactive |
| CG1136 | 1 | 1.29e5 | 92009 | – | 5136 | 3920 | inactive |
| SsRbeta (Signal sequence receptor beta) | 1 | 59943 | 43827 | – | 2506 | 2289 | inactive |
| CG10654 | 1 | 42009 | 53448 | 69591 | 5113 | 4929 | inactive |
| Kcmf1 (Potassium channel modulatory factor 1) | 1 | 75703 | 76465 | – | 3785 | 3600 | inactive |
| CG8888 | 1 | 1.08e5 | 73233 | – | 4662 | 3296 | inactive |
| CG8888 | 2 | 98989 | 71826 | – | 1620 | 5632 | inactive |
| Gr93c (Gustatory receptor 93c) | 1 | 7.77e5 | 1.52e5 | – | 43890 | 2509 | inactive |
| CG15611 | 1 | 1.02e5 | 1.17e5 | – | 4640 | 4381 | inactive |
| CG15611 | 2 | 84762 | 35592 | – | 2554 | 2720 | inactive |
| CG12661 | 1 | 65477 | 2.08e5 | – | 2628 | 8121 | inactive |
| TwdlF (TweedleF) | 1 | 1.04e5 | 75405 | – | 4347 | 3255 | inactive |
| CG9084 | 1 | 57376 | 36712 | – | 1106 | 2858 | inactive |
| 140up (upstream of RpII140) | 1 | 1.17e5 | 99495 | – | 4226 | 3520 | inactive |
| Orp8 (Oxysterol-binding protein-related protein 8) | 1 | 6.25e5 | 5.77e5 | 1.14e5 | 39202 | 3414 | inactive |
| Orp8 (Oxysterol-binding protein-related protein 8) | 2 | 1.20e5 | 69514 | – | 5189 | 3040 | inactive |
| CG10444 | 1 | 75000 | 49072 | – | 3962 | 2593 | inactive |
| CG10209 | 1 | 93289 | 73441 | – | 4595 | 3137 | inactive |
| MED4 (Mediator complex subunit 4) | 1 | 92333 | 46770 | – | 3723 | 2070 | inactive |
| CG17239 | 1 | 1.23e5 | 94024 | – | 3000 | 2347 | inactive |
| TMEM216 (Transmembrane protein 216) | 1 | 87120 | 1.84e5 | – | 3272 | 36073 | inactive |
| CG4270 | 1 | 87825 | 1.02e5 | – | 2144 | 2667 | inactive |
| Rgk1 (Rad, Gem/Kir family member 1) | 1 | 92561 | 1.73e5 | – | 2537 | 8202 | inactive |
| Rgk1 (Rad, Gem/Kir family member 1) | 2 | 92852 | 1.78e5 | – | 2551 | 7755 | inactive |
| Rgk1 (Rad, Gem/Kir family member 1) | 3 | 1.87e5 | 3.90e5 | – | 5505 | 15760 | inactive |
| Rgk1 (Rad, Gem/Kir family member 1) | 4 | 75840 | 45852 | – | 1619 | 3563 | inactive |
| Rgk1 (Rad, Gem/Kir family member 1) | 5 | 31744 | 19603 | – | 922 | 1410 | inactive |
| Pus1 (Pseudouridine synthase 1) | 1 | 7.55e5 | 1.38e5 | – | 43193 | 3532 | inactive |
| EndoU (Endoribonuclease U-specific) | 1 | 82715 | 78272 | – | 2459 | 2794 | inactive |
| CG13727 | 1 | 1.95e5 | – | – | 2869 | 5725 | inactive |
| IleRS-m (Isoleucyl-tRNA synthetase, mitochondrial) | 1 | 1.60e5 | – | – | 6520 | 4628 | inactive |
| S6kII (Ribosomal protein S6 kinase II) | 1 | 1.04e5 | 1.02e5 | – | 2455 | 2678 | inactive |
| CG1902 | 1 | 66812 | 59317 | – | 2939 | 2904 | inactive |
| CG32681 | 1 | 5.98e5 | 2.86e5 | – | 33379 | 6054 | inactive |
| CG13460 | 1 | 72101 | – | – | 1509 | 2070 | inactive |
| ush (u-shaped) | 1 | 95229 | 79252 | – | 5094 | 3911 | inactive |
| CG3650 | 1 | 73900 | 47988 | – | 1659 | 3434 | inactive |
| CG33268 | 1 | 56433 | 43856 | 33664 | 5451 | 3309 | inactive |
| CG8952 | 1 | 77491 | 75552 | – | 2023 | 1760 | inactive |
| CG10621 | 1 | 72315 | 39773 | – | 1751 | 3529 | inactive |
| Phyhd1 (Phytanoyl-CoA dioxygenase domain containing 1) | 1 | 1.37e5 | 1.25e5 | – | 4896 | 3844 | inactive |
| ghi (ghiberti) | 1 | 1.76e5 | 4.15e5 | – | 4594 | 16100 | inactive |
| Xe7 | 1 | 1.01e5 | 1.29e5 | – | 3749 | 3184 | inactive |
| Cnx99A + Cnx14D | 1 | 75017 | 95372 | – | 2561 | 3117 | inactive |
| Dph4 (Diphthamide biosynthesis 4) | 1 | 61441 | 90380 | – | 2320 | 2589 | inactive |
| CG10761 | 1 | 1.08e5 | 2.67e5 | – | 4064 | 9489 | inactive |
| mute (muscle wasted) | 1 | 66352 | 39079 | – | 1619 | 2701 | inactive |
| jeb (jelly belly) | 1 | 67491 | 53546 | – | 1264 | 3684 | inactive |
| jeb (jelly belly) | 2 | 73239 | 58578 | – | 1040 | 3968 | inactive |
| cmet (CENP-meta) | 1 | 1.30e5 | 69402 | – | 3367 | 5856 | inactive |
| Rsod (Related to Sod) | 1 | 68514 | 1.07e5 | – | 1840 | 2741 | inactive |
| CG31802 | 1 | 1.47e5 | 61209 | – | 3632 | 4225 | inactive |
| CG9004 | 1 | 88834 | 41604 | – | 2999 | 3208 | inactive |
| Spn88Eb (Serpin 88Eb) | 1 | 86850 | 88333 | – | 3834 | 3592 | inactive |
| ymp (yellow-emperor) | 1 | 51687 | 2.88e5 | – | 12432 | 7136 | inactive |
| ymp (yellow-emperor) | 2 | 5.96e5 | 1.02e5 | – | 28395 | 2762 | inactive |
| CG9876 | 1 | 1.23e5 | 74817 | – | 3587 | 6384 | inactive |
| wrd (well-rounded) | 1 | 2.11e5 | 25491 | – | 15760 | 1392 | active |
| wrd (well-rounded) | 2 | 6.19e5 | 1.10e5 | – | 31157 | 2704 | inactive |

Records above marked active (2):
| target gene | dsRNA no. | firefly Hh reporter signal, replicate 1 | firefly Hh reporter signal, replicate 2 | firefly Hh reporter signal, replicate 3 | Renilla reference signal, replicate 1 | Renilla reference signal, replicate 2 | activity call |
| --- | --- | --- | --- | --- | --- | --- | --- |
| RpL23 (Ribosomal protein L23) | 1 | 28289 | 24235 | – | 1707 | 3936 | active |
| wrd (well-rounded) | 1 | 2.11e5 | 25491 | – | 15760 | 1392 | active |
